According to patent US7005274B1, “Methods and compositions for diagnosing and treating arthritic disorders and regulating bone mass” (MIGENIX Corp., priority 1999, dated 2006):
Some of these results come from one statement about several compounds together.

Tested on: matrix vesicles derived from chondrocytes
Assay: Matrix vesicle-mediated 45Ca deposition
Format: cell-based
Details: MV prepared from treated cells; p<0.01

Compound | increase in 45Ca precipitated by ATP-treated MV vs. control (untreated) cells [%]
CC[C@H]1/C=C/C=C/C[C@@H](C)[C@H](O)[C@@](C)(O)C(=O)[C@@H](C)[C@H](O)[C@@H](C)C(=O)[C@@H](C)[C@H](O)[C@@H](C)/C=C/C(=O)O[C@@H]2[C@H](C)[C@H](CC1)O[C@]1(CC[C@H](C)[C@H](C[C@@H](C)O)O1)[C@H]2C [oligomycin] | > 50
antimycin A | > 50
